Experimental data: US20180030080A1, “Phosphoramidate nucleoside prodrug for treating viral diseases and cancer, processes for their preparation and their use” (ASAVI, LLC, priority 2016, published 2018)
Some results were stated once for a whole list of compounds, not compound by compound.

How the values were obtained:
[1] = tested on: HCV replicon gT1b; assay: HCV replicon assay, genotype gT1b; type: cell-based; details: relative to PSI-7851
Description: Anti-HCV activity (EC50) and cytotoxicity (CC50) of prodrugs of general formula 1. The HCV replicon assay was used to determine the antiviral activity of chemotherapeutic agents of general formula 1 (test compounds). Sovaldi (PSI-7977) was used as the reference drug. The test cell line used in the HCV Replicon Assay was the human hepatoma cell line Huh7 incorporating the HCV replicons synthesized by an outside vendor. 96-well plates were seeded with cells at a density of 7.5×10^3 cells per well in 50 μl of assay media. The compound stock solution was made up freshly in an assay medium (DMEM 1×, Cellgro; cat. #10-013-CV) as a 2× stock. A total of 11 serial 3-fold dilutions of test compounds were prepared from the 2× stock in the assay media ranging from 20 nM-0.2 pM final concentrations. At least 4 hours after seeding the cells, compound treatment was initiated by adding 50 μl of compound dilution to the plates. […] The final DMSO concentration was 0.5%. Cells and inhibitors were incubated for 3 days at 37° C./5% CO2. The media was removed from the plates by gentle tapping. […] The reaction was stopped with 2N H2SO4 (100 μl/well), and the absorbance was measured at A490 X on a Victor^3 V 1420 multilabel counter (Perkin Elmer). The EC50 values were calculated for test compounds from the resulting best-fit equations determined by Xlfit software (Table 1).

[2] = tested on: Huh7; assay: Cytotoxicity in Huh7 cells (ATPLite); type: cell-based, human; details: at a concentration of 100 μM
Description: The cytotoxicity of the test compounds was studied in parallel using the same cell line, Huh7. Cell viability was determined using the ATPLite Kit (Perkin-Elmer, Boston, USA), according to manufacturer's instructions. 96-well black/transparent bottom plates were seeded with cells at a density of 7.5×10^3 cells per well in 50 μl medium. After 18 hours, compound treatment was initiated by adding 50 μl of compound dilution into the plates. Each compound dilution was tested in triplicates. The cells and inhibitors were then incubated for 96 hours at 37° C./5% CO2. The plates were washed twice with PBS (0.2 ml/well), and then lysed by adding lysis buffer, 0.05 ml/well (all reagents were included with the ATPLite Kit). After rocking for 5 min on a rocking platform, substrate buffer was added (0.05 ml/well). After additional 5-min incubation, the plates were kept in dark for 10 min, and the luminescence was read using TopCount NXT (Packard, Perkin Elmer). CC50 values for all test compounds were determined using XLfit 4.1 software.

## CC(C)OC(=O)[C@H](C)OC(=O)[C@H](C)NP(=O)(OC[C@H]1O[C@@H](n2ccc(=O)[nH]c2=O)[C@](C)(F)[C@@H]1O)Oc1ccccc1 (stereo partly drawn) [1.2(2), (S)-1-isopropyloxycarbonyl-ethyl (S)-2-{[(2R,3R,4R,5R)-5-(2,4-dioxo-3,4-dihydro-2H-pyrimidin-1-yl)-4-fluoro-3-hydroxy-4-methyl-tetrahydro-furan-2-ylmethoxy]-phenoxy-phosphorylamino}-propanoate]
[1]
  more effectively inhibit gT1b (10% FBS) than PSI-7851: 2-3 fold
[2]
  Cell death: 14-16%

## C=CCOC(=O)[C@H](C)NP(=O)(OC[C@H]1O[C@@H](n2ccc(=O)[nH]c2=O)[C@](C)(F)[C@@H]1O)Oc1ccccc1 (stereo partly drawn) [1.2(9), allyl (S)-2-{[(2R,3R,4R,5R)-5-(2,4-dioxo-3,4-dihydro-2H-pyrimidin-1-yl)-4-fluoro-3-hydroxy-4-methyl-tetrahydro-furan-2-ylmethoxy]-phenoxy-phosphorylamino}-propanoate]
[1]
  more effectively inhibit gT1b (10% FBS) than PSI-7851: 2-3 fold
[2]
  Cell death: 14-16%
